Laboratory results published in PubChem BioAssay AID2517 (National Center for Advancing Translational Sciences (NCATS), 2010).
About 1,200 (0.34%) of roughly 350,000 compounds were called active. The inconclusive results got no clear call from the source; some entries with a clear call stand among them for comparison. The call rests on the fitted dose curve; in most records, active means well fitted inhibition curve with a large enough effect; inconclusive means small, poorly fitted or top-dose-only effect; inactive means no such curve, though single readings can be large or run the other way. Potencies of inconclusive entries are doubtful fits and often do not repeat.

By UniProt entry, the sequences of proteins in these tests, tags left out.
UniProt P27695, whole entry, looked up: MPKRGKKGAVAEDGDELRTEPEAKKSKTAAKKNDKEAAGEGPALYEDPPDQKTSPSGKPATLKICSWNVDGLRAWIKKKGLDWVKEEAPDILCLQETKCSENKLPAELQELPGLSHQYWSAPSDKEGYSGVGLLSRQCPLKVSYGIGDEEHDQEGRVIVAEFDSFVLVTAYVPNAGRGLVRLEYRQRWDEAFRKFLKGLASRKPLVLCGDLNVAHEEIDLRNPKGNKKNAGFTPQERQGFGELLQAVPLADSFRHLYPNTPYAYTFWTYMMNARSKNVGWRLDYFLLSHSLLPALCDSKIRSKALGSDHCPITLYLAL

Target: DNA repair nuclease/redox regulator APEX1 (Homo sapiens) (UniProt P27695)
Assay: qHTS Assay for Inhibitors of the Human Apurinic/apyrimidinic Endonuclease 1 (APE1); further: nearly all actives have a fitted effect of over 55% in size;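 on activity change, negative = inhibition: plate controls were vehicle for no effect and reference inhibitor for full effect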
Details: recombinant APE1, TAMRA/BHQ-2 abasic DNA cleavage fluorescence; activity change, negative = inhibition: at 65.8 µM (top of the series)
How it was run: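 Activity was derived from the fluorescence gain between first and third kinetic reads (60 s intervals, ex 525/em 598 nm) after 50 nM THF-abasic TAMRA/BHQ-2 duplex was added to 0.75 nM APE1 preincubated 15 min with compound.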
Potency means the concentration at half of the fitted maximal effect.

| Structure (SMILES) | Potency | activity change, negative = inhibition |
| --- | --- | --- |
| CN(C)CCn1c(=O)n(Cc2ccco2)c(=O)c2c3c(sc21)CCCCC3 | inactive | – |
| CC[n+]1c(/C=C(\C)SC)sc2ccccc21 | inactive | – |
| CCSc1ccccc1C(=O)Nc1ccc([N+](=O)[O-])cc1OC | inconclusive: 35.5 µM [inhibitor, single point] | – |
| N#Cc1c(NC(=O)c2ccccc2Cl)n(Cc2ccccc2)c2nc3ccccc3nc12 | inactive | – |
| CN(C(=O)c1ccc2c(Cl)c3c(nc2c1)CCC3)c1ccccc1 | inconclusive: 3.16 µM [inhibitor, single point] | – |
| O=C(CSc1nnnn1-c1ccccc1)NCC1(N2CCCCC2)CCCCC1 | inconclusive: 23.8 µM [inhibitor, single point] | – |
| NC(=S)N/N=C/c1ccccc1O | inactive | – |
| O=c1cc(-c2ccccc2)[nH]c2ccc(F)cc12 | inconclusive: 4.47 µM [inhibitor, single point] | – |
| CCCn1cnc2c(cnn2-c2ccc(F)cc2)c1=O | inconclusive: 39.8 µM [inhibitor, single point] | – |
| COc1ccc(OC)c(NC(=O)C2CCN(c3cc(-c4ccccc4)nc4ncnn34)CC2)c1 | inconclusive: 0.794 µM [inhibitor, single point] | – |
| O=C(Nc1cnc2ccccc2c1)c1cccc(-n2cnnn2)c1 | inconclusive: 1.58 µM [inhibitor, single point] | – |
| Cc1ccc(C(=O)NCC(=O)OCC(=O)c2c(N)n(C)c(=O)n(C)c2=O)s1 | inconclusive: 39.8 µM [inhibitor, single point] | – |
| Cc1ccc(-c2cc(C(=O)Nc3nccs3)c3ccccc3n2)o1 | inconclusive: 44.7 µM [inhibitor, single point] | – |
| CC(C)C(=O)Nc1cccc(C(=O)NCc2ccc(S(N)(=O)=O)cc2)c1 | inconclusive: 35.5 µM [inhibitor, single point] | – |
| CCCNC(=O)COc1ccc2c(=O)c(Oc3ccccc3F)coc2c1 | inconclusive: 5.01 µM [inhibitor, single point] | – |
| COc1ccc(C(=O)COC(=O)[C@H](C)Nc2ccc(C(F)(F)F)cc2[N+](=O)[O-])c(OC)c1 | inconclusive: 44.7 µM [inhibitor, single point] | – |
| O=C(Nc1ccc2oc(-c3ccncc3)nc2c1)c1ccc(F)cc1 | inactive | – |
| CC(=O)N1c2ccccc2NC2=C(C(=O)CC(C)(C)C2)C1c1cccn1C (stereo not given) | inconclusive: 39.8 µM [inhibitor, partial curve] | – |
| COc1ccc(C2=Nn3c(nnc3-c3ccncc3)SC2)cc1 | inconclusive: 39.8 µM [inhibitor, single point] | – |
| COc1ccc(NC(=O)c2cc3c(s2)CCC3)cc1S(=O)(=O)N1CCOCC1 | inconclusive: 28.2 µM [inhibitor, partial curve] | – |
| O=C(O)C1CCCCC1C(=O)Nc1cccc(Br)c1 (stereo not given) | active: 0.474 µM | – |
| CC(C)(C)SCCNC(=O)CSCc1ccc([N+](=O)[O-])cc1 | inactive | – |
| CCN(CC)C(=O)Cc1c(OC)ccc2cc(Br)ccc12 | inactive | – |

| Structure (SMILES) | Potency | activity change, negative = inhibition |
| --- | --- | --- |
| Nc1ncnc2c1nc(Cl)n2C1OC(CO)C(O)C1O (stereo not given) | inconclusive: 22.4 µM [inhibitor, single point] | – |
| Cc1ccccc1NC(=O)CN1C(=O)N/C(=C\c2cccn2-c2cccc(C(=O)O)c2)C1=O | active: 3.16 µM | – |
| CCCC[C@]12Cc3cc(C#N)ccc3C(O1)c1c(cc(C)n(-c3ccccc3)c1=O)O2 | – | inactive: -5.45% [at 12.4 µM] |
| C#CCN1C(=O)S/C(=C\c2ccc(-c3ccc(C(=O)O)cc3C)o2)C1=O | inconclusive: 23.8 µM [inhibitor, single point] | – |
| CCCNS(=O)(=O)c1cccn1-c1ncc(C(F)(F)F)cc1Cl | inactive | – |
| Oc1ccc(/C=N/N=C/c2ccc(O)c(O)c2)cc1O | inconclusive: 0.377 µM [inhibitor, full curve, poor fit] | – |
| O=C(Nc1ccc(S(=O)(=O)Nc2ncccn2)cc1)c1ccccc1NS(=O)(=O)c1ccc(F)cc1 | inconclusive: 0.0447 µM [inhibitor, full curve, poor fit] | – |
| CN(C)CCCn1c(SCCN2C(=O)c3ccccc3C2=O)nc2ccccc2c1=O | inconclusive: 3.16 µM [inhibitor, single point] | – |
| O=C(NC1CCCCC1)c1cc(Cl)ccc1[N+](=O)[O-] | inconclusive: 0.316 µM [inhibitor, full curve, poor fit] | – |
| Nc1cc(-c2ccc(Cl)cc2)nn1S(=O)(=O)c1cccc2nsnc12 | inconclusive: 44.7 µM [inhibitor, partial curve, poor fit] | – |
| Cc1c(C(=O)OCC(=O)NCc2ccco2)cccc1[N+](=O)[O-] | inconclusive: 23.8 µM [inhibitor, single point] | – |
| Oc1ccc(N=Cc2ccc(-c3cccs3)s2)cc1 | inconclusive: 7.08 µM [inhibitor, partial curve] | – |
| COCCCN1C(=O)CC(C(=O)OC)=C1C | inactive | – |
| COc1ccccc1-c1nnc(NC(=O)OCC(C)C)s1 | inconclusive: 7.08 µM [inhibitor, single point] | – |
| Cc1ccccc1NC(=S)c1nc2ccccc2[nH]1 | inactive | – |
| CC1(c2ccc(Cl)cc2Cl)OCC(Cn2ccnc2)O1 (stereo not given) | inconclusive: 31.6 µM [inhibitor, single point] | – |
| Cc1cccc(C(C)C)c1NC(=O)COC(=O)c1cccc(S(=O)(=O)N2CCc3ccccc3C2)c1 | inconclusive: 12.6 µM [inhibitor, partial curve, poor fit] | – |
| CNC1=C(Cl)C(=O)c2ccncc2C1=O | inconclusive: 20 µM [inhibitor, partial curve] | – |
| COc1ccc(C2=Nn3c(nnc3-c3ccccc3Cl)SC2)cc1OC1CCCC1 | inactive | – |
| Cc1cc(C(=O)COC(=O)C(C)NC(N)=O)c(C)n1Cc1ccco1 (stereo not given) | inconclusive: 0.316 µM [inhibitor, partial curve, poor fit] | – |
| c1ccc(Cn2c(SCc3cn4cccnc4n3)nnc2-c2ccco2)cc1 | inactive | – |
| Cc1ccccc1-c1n[nH]c(=S)n1/N=C/C=C/c1ccco1 | inconclusive: 39.8 µM [inhibitor, single point] | – |

Four entries picked at random from the list so far, as already listed:

| Structure (SMILES) | Potency | activity change, negative = inhibition |
| --- | --- | --- |
| C#CCN1C(=O)S/C(=C\c2ccc(-c3ccc(C(=O)O)cc3C)o2)C1=O | inconclusive: 23.8 µM [inhibitor, single point] | – |
| Cc1cc(C(=O)COC(=O)C(C)NC(N)=O)c(C)n1Cc1ccco1 (stereo not given) | inconclusive: 0.316 µM [inhibitor, partial curve, poor fit] | – |
| CC1(c2ccc(Cl)cc2Cl)OCC(Cn2ccnc2)O1 (stereo not given) | inconclusive: 31.6 µM [inhibitor, single point] | – |
| Cc1cccc(C(C)C)c1NC(=O)COC(=O)c1cccc(S(=O)(=O)N2CCc3ccccc3C2)c1 | inconclusive: 12.6 µM [inhibitor, partial curve, poor fit] | – |
